## Library screen at single concentrations

Source: ChEMBL document CHEMBL3988442, “University of Dundee, Small-Polar-MMV Screening Library” (2021).

Values are the deposited “Percent Effect”, in %. How 0% and 100% were set is not recorded. Most values in the screen are low, and negative values occur. The compounds are a random part of those screened. Two or more numbers in one place are separate tests of the same structure; such repeats can differ widely.

A: 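Whole-parasite assay of Trypanosoma brucei over 72 hours; the read-out is not stated. Compounds at 30 µM. The record gives no direction; compounds that gave an IC50 in retests scored well above the rest, so higher reads as stronger inhibition. Values scatter widely below zero; nearly all retest evidence comes from the higher of the two concentrations used. Size under these conditions: about 64,000 compounds, about 940 of them at 50% or above in at least one test.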
B: 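Assay of Toxoplasma gondii numbers, read through their beta-galactosidase reporter with a colour substrate. Concentration: 10 µM. The record gives no direction; the compounds picked for IC50 retests had high values, so higher reads as fewer parasites. Size under these conditions: about 67,000 compounds, about 260 of them at 50% or above in at least one test.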
C: 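Cell assay of Leishmania donovani living inside macrophages; the read-out is not stated. Concentration: 30 µM. The record gives no direction; compounds that gave an IC50 in retests scored well above the rest, so higher reads as stronger inhibition. About 69,000 compounds were tested under these conditions; 1.5% (about 1,000) showed 50% or more at least once.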

CC(C)c1noc(-c2ccc(NCCCC3CCOC3)nc2)n1 (centres undefined) gave A: -40.13%; B: 10.13%; C: -18.8%.
Cc1nc(C)n(C2CCCN(C(=O)c3csc(C)n3)C2)n1 (centres undefined) gave A: -24.88%; B: -4.664%; C: 2.029%.
Cc1n[nH]cc1CNCC1(c2ccccc2Cl)CCOCC1 gave A: -14.33%; B: 4.057%; C: 26.02%.
CC(Cn1cncn1)NCc1nncn1C1CCCCC1 (centres undefined) gave A: 7.469%; B: -11.17%; C: 20.5%.
CN1CCCC(Cc2cncc(C(=O)NCC3CC3)c2)C1 (centres undefined) gave A: 19.17%; B: -3.011%; C: 2.707%.
Cc1ncc(CNC2CCCN(Cc3noc(C4CC4)n3)C2)s1 (centres undefined) gave A: -5.153%; B: -15.81%; C: 36.47%.
O=C(O)c1cc(-c2cc[nH]n2)cc(S(=O)(=O)N2CCCCCC2)c1 gave A: -22.6%; B: -6.02%; C: -9.522%.
CSCC1CCN(C(=O)c2ccccc2NCc2cccnc2)C1 (centres undefined) gave A: -18.17%; B: 23.07%; C: -38.07%.
Cc1nc(CN2CCN(C(=O)c3cc(C4CC4)on3)CC2)cs1 gave A: -8.707%; B: -6.438%; C: 14.25%.
COCCC1CCCCN1C(=O)c1coc(COc2ccccc2F)n1 (centres undefined) gave A: 0.4079%; B: -5.942%; C: 28.18%.
CC(C)c1ncc2c(n1)CN(Cc1nc(-c3cccnc3)no1)CC2 gave A: 22.03%; B: -16.18%; C: -15.46%.
COCCN(Cc1ccc(F)cc1Cl)C(=O)c1csnn1 gave A: -23.47%; B: -1.391%; C: -5.442%.
O=C(O)C(F)(F)F.O=C(O)C(F)(F)F.O=C1N(c2cccnc2)CCC12CCCN(Cc1ccoc1)C2 (centres undefined) gave A: -10.1%; B: 3.38%; C: 4.796%.
O=C(NCC1CCCO1)c1nc2c(s1)CCCN2c1ncccn1 (centres undefined) gave A: -16.64%; B: -1.433%; C: 13.96%.
Cc1cc(C)n(Cc2cccc(C(=O)N3CCOCC3(C)C)c2)n1 gave A: -5.902%; B: -1.248%; C: -4.785%.
CC(=O)N(Cc1ncc(C)o1)C1CCN(Cc2cccnc2)C1 (centres undefined) gave A: -5.169%; B: 12.09%; C: 57.24% & 9.746%.
c1coc(-c2[nH]c3ncccc3c2CN2CCCOCC2)c1 gave A: -5.324%; B: -9.107%; C: 10.07% & 17.86%.
CC(C)CC(C)NC1CCN(c2ccc(-c3cscn3)cc2)CC1 (centres undefined) gave A: -11.77%; B: 7.076%; C: 25.74%.
CN(C)c1ccc(NC(=O)NCc2cccs2)cn1 gave A: -26.12%; B: -10.52%; C: 10.33%.
CCCN(C(=O)c1csnn1)C1CCCN(Cc2ccccc2)C1 (centres undefined) gave A: -15.58%; B: 1.554%; C: 11.65%.
Cc1ccc2nc(C3CCCN3Cc3cccc(CCN)c3)[nH]c2c1 (centres undefined) gave A: 2.914%; B: 10.42%; C: 54.52%.
Cc1cc(C)n(CC2(CNC(=O)C(c3ccc(F)cc3)N(C)C)CC2)n1 (centres undefined) gave A: -44.93%; B: -5.286%; C: -2.176%.
O=C(NC1CCS(=O)(=O)C1)c1ccc(SCc2cscn2)cc1 (centres undefined) gave A: -1.422%; B: 2.53%; C: 10.79%.
CCC(=O)N1CCC2(CC1)CC(CC(=O)NC1CC1)c1ccccc1O2 (centres undefined) gave A: 9.522%; B: 0.1109%; C: 17.61%.
COC(=O)Cn1c(=O)nc2n1C(=O)N(c1ccccc1)C2 gave A: -3.525%; B: -5.453%; C: 7.573%.
O=C(O)C(F)(F)F.O=C(c1cccnc1)N1CCC2(CCN(C(=O)N3CCCC3)CC2)C1 gave A: -97.77%; B: -7.938%; C: 20.11%.
COCCCN(Cc1ccc(F)cc1Cl)C1CCS(=O)(=O)C1 (centres undefined) gave A: -26.03%; B: -4.221%; C: -3.509% & 10.44%.
COCCOc1ccc(NC(=O)C2CC(=O)N(C3CC3)C2)cn1 (centres undefined) gave A: -2.178%; B: -44.27%; C: 27.44%.
CC(C)C(=O)N1CCC12CCCN(C(=O)c1ccccc1)C2 (centres undefined) gave A: -9.729%; B: 2.772%; C: 9.102%.
CC(C)(O)CN1CCN(C(=O)c2cccc3[nH]ncc23)CC1 gave A: 14.71%; B: 1.908%; C: 3.422%.
CN(C)C1CCN(C(=O)Cc2csc(-c3ncccn3)n2)CC1 gave A: 8.997%; B: 3.755%; C: 11.9%.
Cc1noc(NC(=O)c2ccc(Br)s2)n1 gave A: -11.69%; B: 0.4394%; C: -4.735%.
CCN(CCN1CCCCCC1)C(=O)c1cnc(-c2cccnc2)nc1 gave A: -5.94%; B: 3.526%; C: 5.213%.

The last 3 entries again:

- CN(C)C1CCN(C(=O)Cc2csc(-c3ncccn3)n2)CC1 : A: 8.997%; B: 3.755%; C: 11.9%
- Cc1noc(NC(=O)c2ccc(Br)s2)n1 : A: -11.69%; B: 0.4394%; C: -4.735%
- CCN(CCN1CCCCCC1)C(=O)c1cnc(-c2cccnc2)nc1 : A: -5.94%; B: 3.526%; C: 5.213%